Results are given in words; binding and its absence hold for the method and conditions named. Binding seen in cells or lysates may run through a third protein. These calls come from enrichment with a bait or labelling near it, and not all partners need be listed.
B1: MLX-interacting protein (protein, UniProt Q2VPU4 1-917)
chain: MAADVFMCSPRRPRSRGRSVLLKPQVPEDDDDSDTDEPSPPPPSGVATSARAHASAAPLPPRAGPGREEPPRRQQIIHSGHFMVSSPHREHPPKKGYDFDTVNKQTCQTYSFGKTSSCHLSIDASLTKLFECMTLAYSGKLVSPKWKNFKGLKLQWRDKIRLNNAIWRAWYMQYLEKRRNPVCHFVTPLDGSVDVDEHRRPEAITTEGKYWKSRIEIVIREYHKWRTYFKKRLQQHKDEDLSSLAQDDDMLYWHKHGDGWKTPVPMEEDSLLDTDMLMSEFSDTLFSTLSSHQPVAWPNPREIAHLGNADMIQPGLIPLQPNLDFMDTFEPFQDLFSSSRSIFGSMLPPPSSLPAADPSSPPSQGNILPNTALPPASLPNSLITSSAAPSLDPTEGQGCERTSQTVDPFIQPADFGPSEPPLSVPQPFLPVFTMTLLSPGPAPAPVPTALPLVPSPAPTLNPPTPPAFLQPQKFAGVSKSTPVITHTASATLTHDASATTFSQNQGLVITAHHPTPSSSPCALALSPVPQPPAVGPPQPHLTFIHPKPVSLTGVRHKQPPKIVPAPKPEPVSLVLKNACIAPAAFSGQPQKVIMTSAPLKREGILASTVSPSNVVIASAAITRASGVTEFLSHSTSSQPSPVSRLFSPSTVQDSLVKGEQVSLHGGSPQVPATGSSRDCPNSGQASPCPSEQSPSPQSPQNNCSGKSTDPKNVAALKNRQKHISAEQKRRFNIRMGFNTLNSLISNNSKQTSHAITLQKTMEYITKLQQERMQMQEEARRLREEIEELNTTIISCQQLLPATGVPVNCRQLDHMRDMFDEYVKSRTLQNWKFWIFSMIIKPLFESFKGMVSTSSLEEFHRTALSWLDQHCSLPVLRPMVLSTLRQLSTTTSILTDPSQLPEQASEAVTRMGKRSGES
B2: Cyclin B3 (protein, UniProt Q810T2 1-1396)
chain: MPPPLLPKRSKLETEKAQSNKITPREEQQSEKIGKSNHAASSSSSSTQGAVKRRSVFEDVTNASHSQCVQSKEDNIELKSHVSKRTKKGVGEVTQKKIKSSKMGHVTSLSNMEKEFILDIPNKPKTLTTEEPSVFQKTLVLNEEPATKETCLMRKTLKSCAFHQETLLMEKPLTLLVETEDYNEFDTELMTSKKKDKPEDPTIIEEMTDLKKSVIRKVTLTSSPLWLKNKHVVQEEKPVIQEKSSFKRISLVSNVVTTKEKPPVKKPHFRKKKPTTEMKSLLQEPSLEEKYNTQEDASILKKPQVLQENTNNKDATLTEPVTFKGKHSANEATHTKKPSSSKNNPDPQGKGTNLRPLRVHPVTYENEPMSSKKSTTKKKDSHFHGPSVLPDKHSPQMEVSTVKKSLALPNPTTEEKMLHFPVATVLEKQHNMGEAPCLKKPSPLRKQQQLPKRRRFFSNSAVQETVIRKPLFFKMSTTEKDPPSQWPSALPKKHISPGELSKQKKQHVSPKHNMEEDSQCWLDSAFKKQLSREEPASTHTPLKLEMQQAITKETGFHLRNPLVLPTVTSEAKSLTKEPPSFREQNTSLLKRKSTTHTITLQQAQSEWQEMTDEDRNLFSIKPGSHRKEPIPEFLQNPLPPNENCLISQKLSHSMPFASQKTTSQERAHRKESVASNDDKNFFSQDLFSPFSSADEDTLKFHKSLDFQEQVDRKNDSHKKMFDSQDSVSEEESFLRKLFCKDRCSSTEELSQERTVALEQEFLLIKILNENTSSDVDEPLSHQSPHIQNHSDTTKEALEASEALEAPEALETLEALVASEDLEEPLNILEELSTENMVALMKMLVTEDESTKDSFSGNYTAAREAHAEKSLSLEETSINEAATLKESLSSQEKHRAELVTVLKELLVLMKNPSLKRVALAFQENPSNNVETLLREVLALVENSTADESTLQEKPSTKTDVTPKELLALEENSSNKKANPMDSLSFDHKPDTEMGEIARMVLTDEEYNIDTLYERVLALSQGLIAADQLSFTDLQNFEETKIVDEEEFFKSFLVFENKNSPNMSSNAFESRTDNSSAIMPSSKAFNPVENSNPYVSSSKSFKSTLGAKETEITIQDDSDSLERIEKEGQDPLLNTIYAKDVFNYLKEREEKFLVQKYMDGQMELTSDMRAILVDWLVEIQGSFQMTHETLYLAVKIMDLYLMKAQCKKNHLQLLGSTTYMIAAKFEESYPPSLSEFLFICEDMYEKSDMVSLESSILQTLNFDINIPTAYNFLRRYASCIHASMKTLTLSRFICEMTLQEYEYIEERPSKLAAASFILALYMRNLSNCVPTLEYFTGYKMAELHILVRKLNHLLNFRSHSILKNVFEKYSEETYFEVAKIPPLSKQDLENLLNCALFH
B3: HEAT repeat-containing protein 3 (protein, UniProt Q8BQM4 1-679)
chain: MGKSRTKRFKRPQFSPIESCQAEAAAASNGTGDEEDDGPAAELLEKLQHPSAEVRECACAGLARLVQQRPALPDLARRDAVRRLGPLLLDSSLAVRETAAGALRNLSACGGFDVCDDMVAKDIMTPLVALLRECLSGLDSNEMSPQEKADKRNPVESIANEAVNVLWNVCECSGRAVSIFNKEGCLEIVLQYLRRFPTSIDLAVSVAYCLQTVTEDNPELLKSFDGTALRVLESALLCPVASMEYILLKTLVAGTIWNLKDIIPSKSQAEIINAILGALSEVLGMNTGNMVIQMKEAETQRLKTAAESEDILANANGDDLVEDDEMEEIPHKRKLRRKTFISDLLPPTDKELREAMALLTAQQTALEVIVNMCCSEDPSDDEWEELSSSDESEAFMENSFSECSGHLMSPLCLSHEIHSALTNCLIPEKVFEKTSSPNSVAVDICSKNPTWKPLIRKMNTIQCRALMCLQSLVSLLDIDHLGGAPALQTLAQHLSQILFSQPDFAKHDDFLEAISSALRALLQTMASKNIPQCMTPEQLMTLCREGIHSSSIGVRVNVVSILGITGSVLAKDDGTLDTLKTIGCFLLEVATKDPSLVVTGEALDALFDVFADGEAAEKASVQIKLLAALKEFQPVFKMKIRKEGRGKYSPDQLCVLDNVKMNLRRFIAYQETVEKRLTS
B4: Kinesin-like protein KIF9 (protein, UniProt Q9WV04 1-790)
chain: MGTRKKVQAFVRVRPTDDFAHEMIKYGEDNKSIDIHLKKDTRRGVVNNQQTDWSFKLDGVLHNASQDLVYETVAKDAVSQALDGYNGTIMCYGQTGAGKTYTMTGATENYKHRGILPRALQQVFRMIEERPTHAITVRVSYLEIYNENLFDLLSTLPYVGPSVTPMTIVENPQGIFIKGLSVHLTSQEEDAFSLLFEGETNRIIASHTMNKNSSRSHCIFTIYMEAHSRTLSDEKYITSKINLVDLAGSERLSKTGSEGRVLKEATYINKSLSFLEQAIIALGDQNRDHVPFRQSKLTHALKDSLGGNCNMVLVTNIYGEAAQLDETLSSLRFASRMKLVTTEPAINEKYDAERMVKNLEKELALLKQELAIHDSLSNRTLVNYDPMDEIQIAEINSQVRRYLEGTLDEIDIINLRQIQEVFNQFRVVLSQQEQEVESALRRKYTLIDKNDFAAISAVQKVGLMDIEGNLVGEPDGQSFGLGVAPFSVKPGKKPKTKKTPKDQFSSSARKEGASSPVSGKDFDVASISKTQLIPSSKDGDLKDMLARERETSSIEPLISDSPKEELRAPRPSTPPSRTVAFEEFKNERGSEINRIFKENKSILNERKKRASETTQRINAIKQEIDETKDALNFQKSLREKQGEYENKGLMIIDEEEFLLILKLKDLKKQYRNEYQELRDLRAEIQYCQRLVDQCRHRLLMEFDIWYNESFMIPEDVQVALKLGSSIRPGMVPISRIVCLGEDDQDRFSHLQQTVLPEGLDSITFYNAKVKTDQKHNYMKTMVGLQQSHRK
B5: Latrophilin-1 (protein, UniProt Q80TR1 29-1466)
chain: GLPFGLMRRELACEGYPIELRCPGSDVIMVENANYGRTDDKICDADPFQMENVQCYLPDAFKIMSQRCNNRTQCVVVAGSDAFPDPCPGTYKYLEVQYDCVPYIFVCPGTLQKVLEPTSTHESEHQSGAWCKDPLQAGDRIYVMPWIPYRTDTLTEYASWEDYVAARHTTTYRLPNRVDGTGFVVYDGAVFYNKERTRNIVKYDLRTRIKSGETVINTANYHDTSPYRWGGKTDIDLAVDENGLWVIYATEGNNGRLVVSQLNPYTLRFEGTWETGYDKRSASNAFMVCGVLYVLRSVYVDDDSEAAGNRVDYAFNTNANREEPVSLAFPNPYQFVSSVDYNPRDNQLYVWNNYFVVRYSLEFGPPDPSAGPATSPPLSTTTTARPTPLTSTASPAATTPLRRAPLTTHPVGAINQLGPDLPPATAPAPSTRRPPAPNLHVSPELFCEPREVRRVQWPATQQGMLVERPCPKGTRGIASFQCLPALGLWNPRGPDLSNCTSPWVNQVAQKIKSGENAANIASELARHTRGSIYAGDVSSSVKLMEQLLDILDAQLQALRPIERESAGKNYNKMHKRERTCKDYIKAVVETVDNLLRPEALESWKDMNATEQVHTATMLLDVLEEGAFLLADNVREPARFLAAKQNVVLEVTVLNTEGQVQELVFPQEYPSENSIQLSANTIKQNSRNGVVKVVFILYNNLGLFLSTENATVKLAGEAGTGGPGGASLVVNSQVIAASINKESSRVFLMDPVIFTVAHLEAKNHFNANCSFWNYSERSMLGYWSTQGCRLVESNKTHTTCACSHLTNFAVLMAHREIYQGRINELLLSVITWVGIVISLVCLAICISTFCFLRGLQTDRNTIHKNLCINLFLAELLFLVGIDKTQYEVACPIFAGLLHYFFLAAFSWLCLEGVHLYLLLVEVFESEYSRTKYYYLGGYCFPALVVGIAAAIDYRSYGTEKACWLRVDNYFIWSFIGPVSFVIVVNLVFLMVTLHKMIRSSSVLKPDSSRLDNIKSWALGAIALLFLLGLTWAFGLLFINKESVVMAYLFTTFNAFQGVFIFVFHCALQKKVHKEYSKCLRHSYCCIRSPPGGTHGSLKTSAMRSNTRYYTGTQSRIRRMWNDTVRKQTESSFMAGDINSTPTLNRGTMGNHLLTNPVLQPRGGTSPYNTLIAESVGFNPSSPPVFNSPGSYREPKHPLGGREACGMDTLPLNGNFNNSYSLRSGDFPPGDGGPEPPRGRNLADAAAFEKMIISELVHNNLRGASGGAKGPPPEPPVPPVPGVSEDEAGGPGSADRAEIELLYKALEEPLLLPRAQSVLYQSDLDESESCTAEDGATSRPLSSPPGRDSLYASGANLRDSPSYPDSSPEGPNEALPPPPPAPPGPPEIYYTSRPPALVARNPLQGYYQVRRPSHEGYLAAPSLEGPGPDGDGQMQLVTSL
B6: Mitochondrial peptide methionine sulfoxide reductase (protein, UniProt Q9D6Y7 21-233)
chain: MGDSASKVISAEEALPGRTEPIPVTAKHHVSGNRTVEPFPEGTQMAVFGMGCFWGAERKFWVLKGVYSTQVGFAGGHTRNPTYKEVCSEKTGHAEVVRVVYRPEHISFEELLKVFWENHDPTQGMRQGNDFGTQYRSAVYPTSAVQMEAALRSKEEYQKVLSKHNFGPITTDIREGQVFYYAEDYHQQYLSKNPDGYCGLGGTGVSCPMAIKK

Molecular target: T1, Caveolin-1 (wild type) (dog) (UniProt P33724)
T1 sequence: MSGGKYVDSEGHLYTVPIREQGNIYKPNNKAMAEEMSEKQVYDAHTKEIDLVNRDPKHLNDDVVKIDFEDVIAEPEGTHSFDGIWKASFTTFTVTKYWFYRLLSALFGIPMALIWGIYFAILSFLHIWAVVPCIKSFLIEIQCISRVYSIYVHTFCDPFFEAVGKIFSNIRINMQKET
Assay: affinity purification with mass spectrometry; CAV1 immunoprecipitated with polyclonal anti-CAV1 on Dynabeads from B16F10(CAV1-E-cadherin) cells; trypsin digest, nano-ESI-MS/MS on an LTQ ion trap, Mascot; only proteins unique to this sample listed

| Binder | binding |
| --- | --- |
| B1 | binds |
| B2 | binds |
| B3 | binds |
| B4 | binds |
| B5 | binds |
| B6 | binds |

From article PMC7190567
